From article doi:10.1101/473397 come the findings set out here.

These are yes or no findings as the source states them, for the method shown. Binding seen in cells or lysates may run through a third protein. Tags and fused reporters may be left off the sequences shown.

The target of experiment [1] is FLAG-tagged NDRG2 C-terminal truncation. Description: co-IP.
Experiment [2] concerns the target FLAG-tagged NDRG2 N-terminal truncation. As to the kind of experiment: co-IP.

B1: HA-tagged E3 ligase FBX011 (protein, UniProt Q86XK2 1-927)
chain: MNSVRAANRRPRRVSRPRPVQQQQQQPPQQPPPQPPQQQPPQQQPPPPPQQQQQQQPPPPPPPPPPLPQERNNVGERDDDVPADMVAEESGPGAQNSPYQLRRKTLLPKRTACPTKNSMEGASTSTTENFGHRAKRARVSGKSQDLSAAPAEQYLQEKLPDEVVLKIFSYLLEQDLCRAACVCKRFSELANDPILWKRLYMEVFEYTRPMMHPEPGKFYQINPEEYEHPNPWKESFQQLYKGAHVKPGFAEHFYSNPARYKGRENMLYYDTIEDALGGVQEAHFDGLIFVHSGIYTDEWIYIESPITMIGAAPGKVADKVIIENTRDSTFVFMEGSEDAYVGYMTIRFNPDDKSAQHHNAHHCLEITVNCSPIIDHCIIRSTCTVGSAVCVSGQGACPTIKHCNISDCENVGLYITDHAQGIYEDNEISNNALAGIWVKNHGNPIIRRNHIHHGRDVGVFTFDHGMGYFESCNIHRNRIAGFEVKAYANPTVVRCEIHHGQTGGIYVHEKGRGQFIENKIYANNFAGVWITSNSDPTIRGNSIFNGNQGGVYIFGDGRGLIEGNDIYGNALAGIQIRTNSCPIVRHNKIHDGQHGGIYVHEKGQGVIEENEVYSNTLAGVWVTTGSTPVLRRNRIHSGKQVGVYFYDNGHGVLEDNDIYNHMYSGVQIRTGSNPKIRRNKIWGGQNGGILVYNSGLGCIEDNEIFDNAMAGVWIKTDSNPTLRRNKIHDGRDGGICIFNGGRGLLEENDIFRNAQAGVLISTNSHPILRKNRIFDGFAAGIEITNHATATLEGNQIFNNRFGGLFLASGVNVTMKDNKIMNNQDAIEKAVSRGQCLYKISSYTSYPMHDFYRCHTCNTTDRNAICVNCIKKCHQGHDVEFIRHDRFFCDCGAGTLSNPCTLAGEPTHDTDTLYDSAPPIESNTLQHN
On to B1, for which the binding entry in experiment [1] and in experiment [2] was “no binding” in each case.
